Measured values as given in the supplement of paper PMC10060354, “Discovery of a small molecule ligand of FRS2 that inhibits invasion and tumor growth” (Cellular Oncology, 2022).
Repeats are few or missing, and single values can be far off.

Amino acid sequences for entries named in this document (tags omitted). A change or cut given only in a name is not applied to a line headed by its entry.
UniProt Q6ZMI0: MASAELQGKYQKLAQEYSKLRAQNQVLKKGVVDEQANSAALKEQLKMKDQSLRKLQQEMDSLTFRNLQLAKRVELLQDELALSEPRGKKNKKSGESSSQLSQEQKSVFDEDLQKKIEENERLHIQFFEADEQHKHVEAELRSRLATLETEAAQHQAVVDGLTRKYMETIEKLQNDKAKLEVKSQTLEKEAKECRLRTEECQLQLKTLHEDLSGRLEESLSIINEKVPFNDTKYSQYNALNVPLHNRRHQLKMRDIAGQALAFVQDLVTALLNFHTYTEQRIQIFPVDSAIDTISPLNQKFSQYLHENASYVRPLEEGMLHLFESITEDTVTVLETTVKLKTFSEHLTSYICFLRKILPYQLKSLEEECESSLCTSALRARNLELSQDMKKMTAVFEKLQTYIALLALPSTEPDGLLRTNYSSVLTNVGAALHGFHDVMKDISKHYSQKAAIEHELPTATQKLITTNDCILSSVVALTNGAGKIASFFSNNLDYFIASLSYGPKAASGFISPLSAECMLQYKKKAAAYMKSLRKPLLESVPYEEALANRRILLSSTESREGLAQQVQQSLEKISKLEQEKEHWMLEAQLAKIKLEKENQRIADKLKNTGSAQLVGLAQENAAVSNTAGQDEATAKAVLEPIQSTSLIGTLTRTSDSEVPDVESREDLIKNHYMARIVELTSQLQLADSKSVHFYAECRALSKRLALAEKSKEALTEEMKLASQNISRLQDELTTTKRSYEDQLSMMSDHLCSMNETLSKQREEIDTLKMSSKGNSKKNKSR
UniProt P55082: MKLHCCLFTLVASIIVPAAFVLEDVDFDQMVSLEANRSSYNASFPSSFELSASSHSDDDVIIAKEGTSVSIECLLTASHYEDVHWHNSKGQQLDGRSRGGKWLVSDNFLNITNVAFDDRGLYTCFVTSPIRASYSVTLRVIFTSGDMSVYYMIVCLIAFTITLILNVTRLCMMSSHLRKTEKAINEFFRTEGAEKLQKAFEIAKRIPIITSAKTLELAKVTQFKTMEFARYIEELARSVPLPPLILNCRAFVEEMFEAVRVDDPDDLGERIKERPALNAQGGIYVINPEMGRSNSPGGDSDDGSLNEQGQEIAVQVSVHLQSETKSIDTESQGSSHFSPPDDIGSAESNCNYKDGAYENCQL
UniProt Q92990: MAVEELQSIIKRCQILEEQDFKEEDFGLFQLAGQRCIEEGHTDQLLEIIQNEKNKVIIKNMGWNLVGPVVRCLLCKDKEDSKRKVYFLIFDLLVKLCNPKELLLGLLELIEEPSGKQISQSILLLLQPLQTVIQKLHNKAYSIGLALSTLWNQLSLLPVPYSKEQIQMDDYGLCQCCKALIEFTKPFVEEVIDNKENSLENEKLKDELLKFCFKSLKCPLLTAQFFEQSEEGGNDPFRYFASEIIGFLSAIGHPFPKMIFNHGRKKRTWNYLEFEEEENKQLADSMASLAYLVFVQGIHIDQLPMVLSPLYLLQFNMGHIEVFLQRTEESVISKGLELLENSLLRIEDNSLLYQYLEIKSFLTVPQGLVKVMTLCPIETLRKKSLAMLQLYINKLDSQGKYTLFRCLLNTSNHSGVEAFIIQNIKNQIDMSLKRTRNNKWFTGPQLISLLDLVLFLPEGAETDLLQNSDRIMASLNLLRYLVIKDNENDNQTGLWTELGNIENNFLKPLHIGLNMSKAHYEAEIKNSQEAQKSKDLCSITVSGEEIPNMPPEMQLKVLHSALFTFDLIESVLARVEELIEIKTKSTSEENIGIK
UniProt Q15554: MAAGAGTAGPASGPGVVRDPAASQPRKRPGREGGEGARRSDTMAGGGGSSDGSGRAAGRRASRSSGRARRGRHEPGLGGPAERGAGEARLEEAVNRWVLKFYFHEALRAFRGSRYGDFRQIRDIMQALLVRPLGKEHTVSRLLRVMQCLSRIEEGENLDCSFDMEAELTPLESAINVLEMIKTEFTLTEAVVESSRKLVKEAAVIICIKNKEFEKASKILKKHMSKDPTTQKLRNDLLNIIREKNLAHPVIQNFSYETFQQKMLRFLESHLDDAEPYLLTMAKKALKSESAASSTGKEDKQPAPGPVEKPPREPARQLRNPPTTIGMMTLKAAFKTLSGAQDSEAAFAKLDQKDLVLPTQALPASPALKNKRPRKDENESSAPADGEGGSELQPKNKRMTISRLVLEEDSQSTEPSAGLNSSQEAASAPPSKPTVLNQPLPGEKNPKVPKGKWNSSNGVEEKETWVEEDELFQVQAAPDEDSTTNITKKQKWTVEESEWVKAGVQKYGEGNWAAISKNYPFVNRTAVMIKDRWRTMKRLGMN
UniProt Q05513: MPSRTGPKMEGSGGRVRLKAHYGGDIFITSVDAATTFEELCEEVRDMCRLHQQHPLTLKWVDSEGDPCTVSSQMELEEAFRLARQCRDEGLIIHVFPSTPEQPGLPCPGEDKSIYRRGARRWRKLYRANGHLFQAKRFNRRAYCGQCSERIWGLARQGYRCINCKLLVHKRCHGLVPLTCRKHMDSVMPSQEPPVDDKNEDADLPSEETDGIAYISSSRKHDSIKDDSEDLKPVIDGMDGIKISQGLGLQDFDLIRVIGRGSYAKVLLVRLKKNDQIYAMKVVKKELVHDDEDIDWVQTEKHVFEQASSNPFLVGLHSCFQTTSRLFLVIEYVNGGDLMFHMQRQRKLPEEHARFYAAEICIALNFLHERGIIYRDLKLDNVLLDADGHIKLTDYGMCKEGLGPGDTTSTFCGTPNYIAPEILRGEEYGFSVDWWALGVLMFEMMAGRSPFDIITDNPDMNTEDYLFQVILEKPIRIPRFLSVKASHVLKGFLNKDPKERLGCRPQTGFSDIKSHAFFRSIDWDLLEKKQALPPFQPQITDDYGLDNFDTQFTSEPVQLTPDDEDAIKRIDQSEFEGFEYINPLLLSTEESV
UniProt Q8WU76: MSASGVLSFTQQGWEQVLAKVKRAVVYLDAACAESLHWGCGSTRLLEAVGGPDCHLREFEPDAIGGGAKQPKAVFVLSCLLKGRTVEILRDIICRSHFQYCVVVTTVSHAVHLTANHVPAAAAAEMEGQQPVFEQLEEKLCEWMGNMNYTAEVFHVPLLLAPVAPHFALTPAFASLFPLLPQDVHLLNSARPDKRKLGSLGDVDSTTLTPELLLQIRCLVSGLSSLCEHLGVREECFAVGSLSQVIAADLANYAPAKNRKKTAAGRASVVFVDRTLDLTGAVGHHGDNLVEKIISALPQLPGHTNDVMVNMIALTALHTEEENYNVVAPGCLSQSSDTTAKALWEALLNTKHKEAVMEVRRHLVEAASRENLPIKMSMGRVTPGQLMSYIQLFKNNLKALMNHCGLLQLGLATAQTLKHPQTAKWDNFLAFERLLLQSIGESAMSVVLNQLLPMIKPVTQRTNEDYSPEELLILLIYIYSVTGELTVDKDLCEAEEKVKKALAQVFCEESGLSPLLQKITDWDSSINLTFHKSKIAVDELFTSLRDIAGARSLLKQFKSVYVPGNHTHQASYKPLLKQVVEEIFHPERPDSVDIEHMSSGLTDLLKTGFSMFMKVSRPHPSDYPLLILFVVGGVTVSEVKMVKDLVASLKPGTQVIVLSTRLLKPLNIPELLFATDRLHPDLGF
UniProt Q9C035: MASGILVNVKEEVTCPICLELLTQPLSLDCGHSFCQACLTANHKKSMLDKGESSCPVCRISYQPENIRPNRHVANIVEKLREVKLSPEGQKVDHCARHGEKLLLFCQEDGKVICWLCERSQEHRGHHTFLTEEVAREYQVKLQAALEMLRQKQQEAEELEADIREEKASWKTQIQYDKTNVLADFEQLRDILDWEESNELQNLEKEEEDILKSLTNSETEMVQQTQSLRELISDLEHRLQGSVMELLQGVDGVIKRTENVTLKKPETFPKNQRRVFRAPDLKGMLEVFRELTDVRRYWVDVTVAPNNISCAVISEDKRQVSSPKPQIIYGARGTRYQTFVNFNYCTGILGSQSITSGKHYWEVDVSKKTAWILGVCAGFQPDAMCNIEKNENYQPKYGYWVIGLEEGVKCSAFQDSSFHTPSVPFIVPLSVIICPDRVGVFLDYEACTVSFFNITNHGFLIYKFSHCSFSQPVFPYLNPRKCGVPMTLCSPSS
UniProt P46109: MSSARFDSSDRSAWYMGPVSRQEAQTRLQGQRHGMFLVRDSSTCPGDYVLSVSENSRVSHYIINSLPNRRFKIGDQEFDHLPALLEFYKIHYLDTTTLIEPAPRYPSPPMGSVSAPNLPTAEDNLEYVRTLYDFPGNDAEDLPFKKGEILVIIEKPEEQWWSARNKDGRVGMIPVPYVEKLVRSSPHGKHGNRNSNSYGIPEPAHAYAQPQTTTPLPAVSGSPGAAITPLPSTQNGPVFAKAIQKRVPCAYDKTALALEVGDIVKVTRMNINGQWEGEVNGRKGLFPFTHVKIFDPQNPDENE
UniProt P63279, whole entry: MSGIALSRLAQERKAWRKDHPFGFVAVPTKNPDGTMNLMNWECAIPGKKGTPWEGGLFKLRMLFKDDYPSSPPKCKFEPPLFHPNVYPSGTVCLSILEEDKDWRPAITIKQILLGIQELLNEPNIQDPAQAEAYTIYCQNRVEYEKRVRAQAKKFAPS
UniProt P78381: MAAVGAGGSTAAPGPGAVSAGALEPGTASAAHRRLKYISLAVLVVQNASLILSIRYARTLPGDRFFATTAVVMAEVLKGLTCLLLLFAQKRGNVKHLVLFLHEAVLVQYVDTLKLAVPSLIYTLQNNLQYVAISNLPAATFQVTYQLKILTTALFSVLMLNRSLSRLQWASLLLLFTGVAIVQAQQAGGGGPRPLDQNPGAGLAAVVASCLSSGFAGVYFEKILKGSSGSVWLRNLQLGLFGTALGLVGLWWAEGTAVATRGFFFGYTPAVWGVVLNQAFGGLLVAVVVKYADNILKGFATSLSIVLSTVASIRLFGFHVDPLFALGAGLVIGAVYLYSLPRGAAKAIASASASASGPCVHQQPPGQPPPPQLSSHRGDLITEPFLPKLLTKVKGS
UniProt P56181: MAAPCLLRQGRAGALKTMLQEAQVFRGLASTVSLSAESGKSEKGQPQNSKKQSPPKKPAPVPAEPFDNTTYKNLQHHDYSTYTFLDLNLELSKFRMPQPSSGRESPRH
UniProt O43314: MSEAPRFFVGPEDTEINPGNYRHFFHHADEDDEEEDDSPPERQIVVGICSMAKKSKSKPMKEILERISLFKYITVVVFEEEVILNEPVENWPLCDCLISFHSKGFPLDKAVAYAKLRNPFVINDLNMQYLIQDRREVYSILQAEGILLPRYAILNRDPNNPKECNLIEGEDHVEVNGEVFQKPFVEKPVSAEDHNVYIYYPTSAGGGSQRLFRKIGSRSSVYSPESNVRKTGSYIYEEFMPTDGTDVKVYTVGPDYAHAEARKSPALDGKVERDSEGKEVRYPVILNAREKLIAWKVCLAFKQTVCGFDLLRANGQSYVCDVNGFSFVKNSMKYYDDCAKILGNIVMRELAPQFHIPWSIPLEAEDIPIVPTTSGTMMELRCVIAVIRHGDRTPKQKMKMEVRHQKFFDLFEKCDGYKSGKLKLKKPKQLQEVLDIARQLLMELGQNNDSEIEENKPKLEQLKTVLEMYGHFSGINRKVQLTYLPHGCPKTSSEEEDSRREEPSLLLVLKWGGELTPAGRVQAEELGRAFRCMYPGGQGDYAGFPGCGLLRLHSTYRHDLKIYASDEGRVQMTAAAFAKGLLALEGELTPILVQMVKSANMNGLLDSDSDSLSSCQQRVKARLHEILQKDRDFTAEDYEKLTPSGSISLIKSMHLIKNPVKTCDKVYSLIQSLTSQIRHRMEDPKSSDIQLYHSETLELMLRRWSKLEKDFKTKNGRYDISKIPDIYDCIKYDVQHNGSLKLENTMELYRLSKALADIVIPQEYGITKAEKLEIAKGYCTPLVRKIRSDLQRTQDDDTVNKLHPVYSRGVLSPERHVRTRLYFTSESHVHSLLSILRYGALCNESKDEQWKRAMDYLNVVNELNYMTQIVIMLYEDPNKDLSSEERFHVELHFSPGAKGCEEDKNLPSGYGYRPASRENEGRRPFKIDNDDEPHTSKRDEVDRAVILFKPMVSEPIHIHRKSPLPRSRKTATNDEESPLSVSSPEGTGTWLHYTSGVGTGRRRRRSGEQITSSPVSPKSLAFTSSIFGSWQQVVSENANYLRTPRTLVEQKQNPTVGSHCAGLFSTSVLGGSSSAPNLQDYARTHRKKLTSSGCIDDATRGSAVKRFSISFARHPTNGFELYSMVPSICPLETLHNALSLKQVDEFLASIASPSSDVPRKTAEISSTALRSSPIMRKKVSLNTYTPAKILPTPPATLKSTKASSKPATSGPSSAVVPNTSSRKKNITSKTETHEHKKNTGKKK
UniProt Q9BVK6: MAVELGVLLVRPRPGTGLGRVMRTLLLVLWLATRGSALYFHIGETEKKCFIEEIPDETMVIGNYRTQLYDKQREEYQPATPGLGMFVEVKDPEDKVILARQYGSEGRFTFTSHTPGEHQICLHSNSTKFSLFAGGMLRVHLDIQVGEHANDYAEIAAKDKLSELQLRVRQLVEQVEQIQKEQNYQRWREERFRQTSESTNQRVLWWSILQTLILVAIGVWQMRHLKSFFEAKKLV

Compound: [O-][N+](C(C1=C(C(O)=C2)NC(C(C=C3)=CC=C3Cl)C4C1C=CC4)=C2Cl)=O
Experiment: melting temperature shift (compound 7 minus DMSO); higher = compound stabilises the protein
Conditions: 10 µM
Procedure: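 Thermal proteome profiling (TMT mass spectrometry) in intact DAOY medulloblastoma cells or DAOY lysates treated with 10 µM compound 7 or DMSO, heated at 10 temperatures from 40.5 to 73.8 °C for 3 min. Melting curves were fitted with the Bioconductor TPP package, and the melting point difference between compound and vehicle is reported per protein (single curve per condition).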

[1] = system: DAOY cell lysate, treatment time: 20 min, 4 °C
[2] = system: intact DAOY cells, treatment time: 90 min, 37 °C

Target	melting temperature shift [1] [°C]	melting temperature shift [2] [°C]
PPP1R21 (UniProt Q6ZMI0)	0.021	-0.5
UniProt P55082		1.19
METTL1 (UniProt Q9UBP6)	-1.05	-0.252
UniProt Q9HD47	3.94	
GLMN (UniProt Q92990)	-1.38	0.0287
UniProt Q9P0S3		-0.423
UniProt Q16799	2.37	
STX4 (UniProt Q12846)	2.22	-0.127
ANP32B (UniProt Q92688)	-0.318	0.277
PAPD5 (UniProt Q8NDF8)	0.375	
TRMT5 (UniProt Q32P41)	0.489	0.131
UniProt P23219		-0.155
TERF2 (UniProt Q15554)	0.435	-1.32
HIST1H1B (UniProt P16401)	1.42	-1.27
UniProt Q05513		-0.837
SCFD2 (UniProt Q8WU76)	1.43	
NOA1 (UniProt Q8NC60)	-0.417	
ADAM10 (UniProt O14672)	0.373	-0.978
UniProt Q9Y483	-2.33	
CDC123 (UniProt O75794)	-0.953	-0.849

Five entries from above, with bars between the fields:
Target | melting temperature shift [1] [°C] | melting temperature shift [2] [°C]
PPP1R21 (UniProt Q6ZMI0) | 0.021 | -0.5
METTL1 (UniProt Q9UBP6) | -1.05 | -0.252
UniProt Q16799 | 2.37 | 
UniProt P23219 |  | -0.155
SCFD2 (UniProt Q8WU76) | 1.43 | 

More entries follow.

Target	melting temperature shift [1] [°C]	melting temperature shift [2] [°C]
TRAF2 (UniProt Q12933)	-0.0202	0.244
DHX16 (UniProt O60231)	-1.07	-0.263
TRIM5 (UniProt Q9C035)	-1.25	-1.49
DYNC1H1 (UniProt Q14204)	-0.578	-0.682
HMG20A (UniProt Q9NP66)	0.993	
CRKL (UniProt P46109)	-0.514	0.113
TIMELESS (UniProt Q9UNS1)	-0.607	
UBE2I (UniProt P63279)	-0.464	-0.66
PSMD10 (UniProt O75832)	-0.834	-0.0186
NIPA2 (UniProt Q8N8Q9)		-0.499
UniProt P78381	1.36	-2.52
ZMYM1 (UniProt Q5SVZ6)	0.301	
EXOC4 (UniProt Q96A65)	-0.756	-1.02
SLC7A5 (UniProt Q01650)	2.27	0.125
FLAD1 (UniProt Q8NFF5)	-0.46	-1.43
HSPA9 (UniProt P38646)	0.637	-1.82
UniProt P0DN79	-0.425	-3.18
NDUFV3 (UniProt P56181)	6.11	
PRTFDC1 (UniProt Q9NRG1)	1.39	
EP300 (UniProt Q09472)	-0.844	2.19

Target	melting temperature shift [1] [°C]	melting temperature shift [2] [°C]
GANAB (UniProt Q14697)	1.03	0.181
ZC3H14 (UniProt Q6PJT7)	1.08	-1.09
UniProt Q9UPN3	3.96e-06	0.126
PPIP5K2 (UniProt O43314)	0.735	-0.893
ATG13 (UniProt O75143)	1.01	1.82
PPP3CB (UniProt P16298)	-0.457	-0.187
UniProt Q4VC05		1.22
VPS39 (UniProt Q96JC1)		0.75
GRPEL2 (UniProt Q8TAA5)	-0.947	-0.709
FOXK1 (UniProt P85037)	0.0897	-1.47
NCBP1 (UniProt Q09161)	-0.845	-0.168
TMED9 (UniProt Q9BVK6)	1.98	-0.627
CNDP2 (UniProt Q96KP4)	-0.516	0.827
MYO1B (UniProt O43795)	0.661	-0.335
RPS21 (UniProt P63220)	0.15	0.343
UniProt P51805		-0.684
R3HDM1 (UniProt Q15032)	-0.12	
RPS16 (UniProt P62249)	0.093	-0.642
